Results are given in words; binding and its absence hold for the method and conditions named.
Biological target: His-tagged pneumolysin (Ply) (Streptococcus pneumoniae) (UniProt P0C2J9)
Experiment: pull-down; both purified

Protein sequences, listed by entry. Tags and fused reporters are not part of them.
UniProt P0C2J9: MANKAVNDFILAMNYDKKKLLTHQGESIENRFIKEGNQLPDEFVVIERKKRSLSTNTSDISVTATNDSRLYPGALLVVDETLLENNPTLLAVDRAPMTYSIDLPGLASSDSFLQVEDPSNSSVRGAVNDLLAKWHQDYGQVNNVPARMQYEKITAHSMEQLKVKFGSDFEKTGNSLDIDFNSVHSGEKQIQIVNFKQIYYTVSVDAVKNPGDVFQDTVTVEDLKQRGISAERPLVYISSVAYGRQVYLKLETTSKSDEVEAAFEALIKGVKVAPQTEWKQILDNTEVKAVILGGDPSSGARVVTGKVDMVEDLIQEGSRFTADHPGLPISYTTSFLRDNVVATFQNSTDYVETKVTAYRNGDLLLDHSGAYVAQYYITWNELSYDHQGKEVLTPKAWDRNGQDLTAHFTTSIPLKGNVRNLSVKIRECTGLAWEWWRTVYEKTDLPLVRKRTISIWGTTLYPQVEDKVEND
UniProt P68363: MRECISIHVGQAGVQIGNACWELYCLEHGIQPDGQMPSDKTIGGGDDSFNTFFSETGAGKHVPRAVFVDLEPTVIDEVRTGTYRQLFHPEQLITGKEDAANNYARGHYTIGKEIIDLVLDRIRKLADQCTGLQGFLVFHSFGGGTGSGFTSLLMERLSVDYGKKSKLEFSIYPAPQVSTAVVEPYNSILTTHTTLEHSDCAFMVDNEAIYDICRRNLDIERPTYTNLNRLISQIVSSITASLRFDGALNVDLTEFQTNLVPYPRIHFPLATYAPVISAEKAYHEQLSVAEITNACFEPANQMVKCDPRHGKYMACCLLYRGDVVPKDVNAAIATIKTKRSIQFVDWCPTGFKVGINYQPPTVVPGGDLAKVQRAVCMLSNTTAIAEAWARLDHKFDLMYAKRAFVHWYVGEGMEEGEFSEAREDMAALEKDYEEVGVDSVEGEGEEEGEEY

With “α-tubulin-1B chain (purified recombinant) (from UniProt P68363 1-451)” the binding was “no binding (tested: 2 μM)”.

Source: PMC7990213
